Assay results as given in PMC9816117.

Tests used:
[1] = system: 6xHis-TAL20Xam668 (Xanthomonas phaseoli pv. manihotis (Xam668)); assay: competition with a labelled probe; details: excess unlabeled oligo against labeled unmethylated EBE; LightShift Chemiluminescent EMSA Kit per manufacturer (buffer, salt, pH not stated); 0-1000 fmol TAL20; room temperature 20 min (competitor pre-incubated 20 min); recombinant protein; protein details: N-terminal 6xHis (pDEST17)
[2] = system: 6xHis-TAL20Xam668 (Xanthomonas phaseoli pv. manihotis (Xam668)); assay: EMSA; details: LightShift Chemiluminescent EMSA Kit per manufacturer (buffer, salt, pH not stated); 0-1000 fmol TAL20; room temperature 20 min (competitor pre-incubated 20 min); recombinant protein; protein details: N-terminal 6xHis (pDEST17); label: biotin 3' end (probe)

| Sequence | binding result [1] | binding result [2] |
| --- | --- | --- |
| CCCTATATAAACGCTTCTCGCCCATCCATCATT (double strand) [MeSWEET10a EBE, unmethylated, unlabeled competitor] | binds |  |
| CCCTATATAAACGCTTCTCGCCCATCCATCATT (double strand) [MeSWEET10a EBE, unmethylated] |  | binds |

For at least one entry, the source does not settle the construct or the ends of the probe.
